A short description of this series: peptide synthesis. The following applies: whole synthesis.

This note sets out measurements from patent US20160176924A1 (priority 2008, published 2016).

With (IESDV)2PEG4, the “final purity (method not given)” value was 98% and the isolated yield was found to be 24%.

Substance (IETAV)2PEG4 returned an isolated yield of 35%.

Consider (IESDV)2PEG8, for which the isolated yield worked out at 23%. Further, under “run 1”, the “final purity (method not given)” value stood at 98%.

Consider (IESDV)2PEG12, for which the isolated yield stood at 40%. Besides, the “final purity (method not given)” value (run 1) was determined as 98%.

As to (IESDV)2PEG6, the isolated yield stood at 23%.
